In US20250110133A1, “METHOD AND KIT FOR PREDICTING DRUG EFFICACY OF LUNG CANCER TREATMENT AND METHOD FOR TREATING LUNG CANCER” (National Health Research Institutes, priority 2023, published 2025):
No constants are given. Whether binding was seen depends on the method and setting. Some entries that bind do so weakly or less than the wild type. For some assays here: Sequences can lack the tags named with a protein.

Sequences of proteins named here, by UniProt entry; tags and fusion partners are left off. A change or cut given only in a name is not applied to a line headed by its entry. A line that says so, or that is headed by a name, gives the form on record, which may keep a tag or linker.
FLAG-tagged human AP2M1 (Q96CW1, form named): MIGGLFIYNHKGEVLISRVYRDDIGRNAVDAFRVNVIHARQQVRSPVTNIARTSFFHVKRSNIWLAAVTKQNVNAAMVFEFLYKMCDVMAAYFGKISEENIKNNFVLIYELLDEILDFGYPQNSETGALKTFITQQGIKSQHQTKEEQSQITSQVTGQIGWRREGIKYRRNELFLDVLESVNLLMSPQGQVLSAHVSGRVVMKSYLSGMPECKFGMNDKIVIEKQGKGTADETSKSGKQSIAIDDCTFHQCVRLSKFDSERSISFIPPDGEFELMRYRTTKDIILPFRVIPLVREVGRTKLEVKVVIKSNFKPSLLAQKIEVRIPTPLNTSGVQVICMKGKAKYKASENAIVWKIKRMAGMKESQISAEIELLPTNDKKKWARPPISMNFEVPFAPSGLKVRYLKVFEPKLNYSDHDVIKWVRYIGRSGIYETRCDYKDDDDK
UniProt O95751: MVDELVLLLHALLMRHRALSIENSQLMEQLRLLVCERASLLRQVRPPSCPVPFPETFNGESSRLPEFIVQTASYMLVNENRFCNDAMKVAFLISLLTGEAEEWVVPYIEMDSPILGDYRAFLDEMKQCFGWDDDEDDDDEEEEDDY

Legend:
[1] = target: T1, FLAG-tagged human AP1M1 (human) (UniProt Q9BXS5); assay: double immunofluorescence colocalisation, confocal microscopy, co-transfected U2OS cells
T1 sequence: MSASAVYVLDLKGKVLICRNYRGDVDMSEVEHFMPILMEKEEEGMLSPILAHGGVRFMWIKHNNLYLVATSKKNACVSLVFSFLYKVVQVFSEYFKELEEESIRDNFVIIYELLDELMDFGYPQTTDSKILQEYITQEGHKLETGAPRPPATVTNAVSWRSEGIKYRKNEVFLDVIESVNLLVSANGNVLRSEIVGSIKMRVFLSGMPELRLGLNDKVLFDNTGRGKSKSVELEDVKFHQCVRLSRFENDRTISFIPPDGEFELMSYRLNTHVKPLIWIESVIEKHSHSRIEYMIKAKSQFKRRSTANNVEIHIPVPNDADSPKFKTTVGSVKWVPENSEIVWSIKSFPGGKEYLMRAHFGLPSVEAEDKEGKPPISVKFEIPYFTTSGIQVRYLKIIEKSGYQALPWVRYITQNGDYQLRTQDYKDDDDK

[2] = target: FLAG-tagged human AP2M1 (human) (UniProt Q96CW1); assay: as above

binding [1]: binds | binding [2]: binds
Substance: V5-tagged human LDOC1 (from UniProt O95751 1-146)
